Source: PubChem BioAssay AID1159506 (NCATS, 2015).

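Genome-wide siRNA knockdown in TC32 Ewing sarcoma cells, comparing luciferase light from an NR0B1-promoter reporter with a CMV-promoter reporter 48 hours after transfection.
Each siRNA was applied at 20 nM.
A z-score of the log NR0B1-over-CMV signal, less the median of siRNAs with the same seed; more negative means a stronger specific loss of the NR0B1 reporter.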

This is part of the screen; most of the strongest results are not listed here.
Sequences are the guide (antisense) strand, without overhang.

- UACGGUAUCUGGUAUUGCC against TRAPPC13 : seed-corrected z-score 0.3126
- UGAGUUAUCCGUGUUAGCC against PLPPR4 : seed-corrected z-score -0.4561
- AAUCCAUAAAGCUUGGUCG against FBXL3 : seed-corrected z-score 0.8536
- UCAUCGUAACGAUUCCUUC against HJURP : seed-corrected z-score -1.611
- UAGGAACGCAGUGAUAACC against PHTF1 : seed-corrected z-score -0.4257
- UUUGUCUUCAGUCUUUGCC against SLC35G3 : seed-corrected z-score 1.414
- UUCCAGUCUUCUAUCUUCU against C10orf53 : seed-corrected z-score -0.1715
- UCAAUUCUGCUGAUCAUCU against CSNK1A1L : seed-corrected z-score 0.9624
- AAAUCUAUACCACCAAGGC against NUP58 : seed-corrected z-score 0.9944
- UUUGGAGGUAGUUUAGUCC against KCNE3 : seed-corrected z-score -1.819
- UGAUGUAGAAGUUGUUAGC against WASF3 : seed-corrected z-score 0.05101
- UAUGUUGACAGCAUCCUGC against PSMD4 : seed-corrected z-score -1.082
- UUCUGUGAACUUGACCACC against C8orf74 : seed-corrected z-score -0.9313
- AUUCGUUUAAGAACAUUAC against PPP2R5C : seed-corrected z-score -0.812
- UUUAGUGCAUCCAAGAUUG against MALT1 : seed-corrected z-score -0.7186
- UAUACUACCCUUGCAGCGG against CDK9 : seed-corrected z-score 0.8891
- UUAGUCAGCAGUCCUGAAC against LOC283710 : seed-corrected z-score 0.8526
- UCAGUGUUCUUCGCCCAGC against ADM5 : seed-corrected z-score -0.5975
- UCCAUUCACCCUGAAAUUC against RPSAP9 : seed-corrected z-score 1.159
- UGAUUCACCUCAGAUAUGC against SEC23B : seed-corrected z-score 0.8323
- UCAUCCACACCAAAACUCU against HMHB1 : seed-corrected z-score 0.05175
- UCACGAUUCUUACUCCUGC against PEX7 : seed-corrected z-score 0.1103
- AAUGUUAACACUGCGGUCG against SRRT : seed-corrected z-score -1.081

2 of the entries, repeated:

UAGGAACGCAGUGAUAACC against PHTF1 gave seed-corrected z-score -0.4257.
UUUGUCUUCAGUCUUUGCC against SLC35G3 gave seed-corrected z-score 1.414.